According to PubChem BioAssay AID2685 (National Center for Advancing Translational Sciences (NCATS), 2010):
Some of the results follow. The main result of the screen is listed elsewhere. These columns were measured beside it and carry no call. Compounds called inactive in the main read-out are mostly missing here. Words in brackets tell the shape of the fitted curve; partial curves, single points and poor fits give uncertain potencies.

Assay: qHTS Assay for Lipid Storage Modulators in Drosophila S3 Cells;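 for cell number change: cells counted by Cell Tracker Red CMTPX staining in the red channel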
Settings: BODIPY lipid droplet fluorescence, 18-24 h; for cell number change: measured here: cell count max response, cells fed with added oleic acid
Summary of the method: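 Laser-scanning cytometry quantifies lipid droplet accumulation (500–530 nm total intensity; droplet/cell object ratio) in oleic acid-fed (400 uM added) Drosophila S3 cells treated with a concentration series. 20 uM Triacsin C defined 100% inhibition.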

[1] = measured here: lipid fluorescence (Fed channel) AC50, cells fed with added oleic acid
[2] = measured here: cell number channel AC50, cells fed with added oleic acid

Row | Compound | cell number change | AC50 [1] | AC50 [2]
1 | Cc1cccc(NC(=O)CCc2c(C)nn(-c3ccc(N4CCCCC4)nn3)c2C)c1 | -0.306% | 0.58 µM [falling, partial curve, poor fit] | 
2 | COc1cc(C(=O)N(Cc2ccco2)Cc2cc3ccccc3[nH]c2=O)cc(OC)c1OC | 16.6% | 2.06 µM [rising, full curve] | 
3 | COc1ccc(C2=CC(=O)OC3(CCCC3)O2)cc1 | 69.3% |  | 23.1 µM [rising, single point]
4 | Cc1oc(-c2ccccc2)cc1C(=O)Nc1ccc(N(C)C)cc1 | -18% |  | 
5 | COc1ccc(N2CCN(C(=O)c3cc(=O)c4cc(C)c(C)cc4o3)CC2)cc1 | 14.2% | 6.51 µM [rising, partial curve] | 
6 | COc1cc(C)nc(N2CCCC(C(=O)NCC(C)C)C2)n1 (configuration not stated) | 18% | 16.4 µM [rising, partial curve, poor fit] | 
7 | C1CCc2nnc(C3CC3)n2CC1 | 8.01% | 0.1 µM [rising, full curve, poor fit] | 
8 | Nc1n[nH]c(C2CC2)c1N=Nc1ccc(Cl)c(Cl)c1 | -25.7% |  | 
9 | Cc1cccc2cc3c(NC(=O)c4ccccn4)nn(C)c3nc12 | 30.1% | 0.259 µM [rising, full curve] | 0.206 µM [rising, full curve, poor fit]
10 | Cc1nc(Cl)cc(CS(=O)(=O)c2ccc(Cl)cc2)n1 | -36.9% | 0.00517 µM [falling, full curve, poor fit] | 0.00651 µM [falling, full curve]
11 | COc1cccc(CNC(=O)CCNS(=O)(=O)c2ccc(Br)s2)c1 | 1.74% |  | 
12 | O=C(NCc1cccc(C(F)(F)F)c1)c1ccc2c(c1)OCCO2 | 34% |  | 
13 | S=c1[nH]nc(COc2ccccc2)n1/N=C/c1ccccc1Cl | -44.3% |  | 14.6 µM [falling, single point]
14 | CC(C)(C)c1ccc(OCC(=O)N/N=C/C2CC=CCC2)cc1 (configuration not stated) | -40.7% |  | 29.1 µM [falling, single point]
15 | CCOC(=O)C1=C(C)NC(C)=C(C(=O)OCC)C1C(=O)OCC(=O)N1CC(C)OC(C)C1 (configuration not stated) | -25.8% | 13 µM [rising, single point] | 
16 | CC(SCc1ccccc1)C(=O)Nc1ccc2c(c1)OCO2 (configuration not stated) |  | 6.51 µM [falling, single point] | 
17 | CSc1nnc(-c2sc3cc(Cl)ccc3c2Cl)n1C |  | 20.6 µM [falling, partial curve] | 
18 | COCCCNC(=O)CNC(=S)N(Cc1ccc(F)cc1)C1CCCCC1 | 11.7% | 2.91 µM [rising, partial curve] | 

A stretch from the list above:
Row | Compound | cell number change | AC50 [1] | AC50 [2]
14 | CC(C)(C)c1ccc(OCC(=O)N/N=C/C2CC=CCC2)cc1 (configuration not stated) | -40.7% |  | 29.1 µM [falling, single point]
15 | CCOC(=O)C1=C(C)NC(C)=C(C(=O)OCC)C1C(=O)OCC(=O)N1CC(C)OC(C)C1 (configuration not stated) | -25.8% | 13 µM [rising, single point] | 
